Reference: PubChem BioAssay AID493014 (National Center for Advancing Translational Sciences (NCATS), 2011)
The whole screen tested about 340,000 compounds, of which about 170 (0.05%) were called active. The inconclusive results got no clear call from the source; some entries with a clear call stand among them for comparison. The call rests on the fitted dose curve; in most records, active means well fitted inhibition curve with a large enough effect in the signal ratio, with a control signal flat (not every such curve was filed as active); inconclusive means small, poorly fitted or top-dose-only effect, or effect the other way, or a change in a side signal; inactive means flat fitted curve, though single readings scatter; the % refers to the signal ratio. A potency beside an inconclusive call is a rough fit, not a confirmed value.

Assay: qHTS Assay to Find Inhibitors of Chronic Active B-Cell Receptor Signaling;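 on activity change, negative = inhibition: plate controls were basal doxycycline-induced cells for no effect and cells given 10 µM MG132 for full effect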
Settings: ABC-DLBCL IkBa-CBG/CBR reporter, luminescence ratio (green luciferase fused to IkBa over red control in TMD8 lymphoma cells), 4 h
Method in brief: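 Cell line TMD8 (human ABC DLBCL), stably expressing tet-inducible CBG68-IkBa fusion and CBR; IMDM/0.5% FBS; cpd up to 46 uM; dox induction, 4 h, 37C/5% CO2; dual luminescence; green/red ratio; MG132 control.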

[1] = activity change, negative = inhibition: at 46.1 µM (top of the series) unless noted
Potency means the concentration at half of the fitted maximal effect.

CCc1ccc(NC(=S)N2CCN(S(=O)(=O)c3ccccc3)CC2)cc1
activity change, negative = inhibition [1]: inactive

CCOC(=O)N1CCN(C(=O)c2noc3c2COc2ccccc2-3)CC1
activity change, negative = inhibition [1]: inconclusive: -0.279%

Cc1ccc(NC(=O)C(OC(=O)c2ccc(NC(N)=O)cc2)c2ccccc2)cc1Cl (centres undefined)
activity change, negative = inhibition [1]: inconclusive: 9.69%

CC(=O)Nc1ccc(NS(=O)(=O)c2ccc(-c3cnc(C4CC4)o3)cc2)cc1
activity change, negative = inhibition [1]: inactive

N#CCCNS(=O)(=O)c1ccc(C(=O)OCCCOC(=O)c2ccc(S(=O)(=O)NCCC#N)cc2)cc1
Potency [1]: inconclusive: 31.6 µM [falling, single point]

C/C(=N\NC(=O)c1ccc(NS(=O)(=O)c2cccs2)cc1)c1cccs1
Potency [1]: inconclusive: 25.1 µM [falling, single point]

C=CCO/N=C(/CCC)C1=C(N)CC(C)(C)CC1=O
activity change, negative = inhibition [1]: inconclusive: 0.0994%

COc1ccc(NC(=O)CNc2cccc(C#N)c2)cc1Cl
activity change, negative = inhibition [1]: inconclusive: 1.75%

CCOC(=O)CSc1nnc(NC(=O)c2ccc3c(c2)OCO3)s1
Potency [1]: inconclusive: 2.82 µM [falling, full curve]

COc1ccc2cc(C(=O)N(C)Cc3ccccc3)[nH]c2c1
activity change, negative = inhibition [1]: inconclusive: 8.23%

CCN1CCN(S(=O)(=O)c2ccc(Cl)c(C(=O)NCCc3ccccc3)c2)CC1
activity change, negative = inhibition [1]: inactive

Cc1ccc(C(=O)NC(=S)Nc2ccc(-c3ccc(CO)o3)cc2)cc1
Potency [1]: inconclusive: 31.6 µM [rising, single point]

c1ccc(CSc2nnc(-c3ccco3)n2Cc2ccco2)cc1
Potency [1]: inconclusive: 35.5 µM [falling, single point]

CC1=[N+](C)c2c(ccc3cccnc23)C1(C)C
activity change, negative = inhibition [1]: inconclusive: -0.801%

COc1ccccc1CNC(=O)COc1cc2c(c3oc(=O)cc(C)c13)CCC(C)(C)O2
activity change, negative = inhibition [1]: inactive

Cc1ccc(-c2nc(-c3ccccn3)no2)cc1Cl
Potency [1]: inconclusive: 31.6 µM [falling, partial curve]

N#C/C(=C\c1ccc(-c2ccccc2[N+](=O)[O-])o1)C(=O)Nc1nc(-c2cccs2)cs1
activity change, negative = inhibition [1]: inactive

CCCCNCCOCCOc1ccc(Cl)cc1Br
activity change, negative = inhibition [1]: inactive

O=C(/C=C/c1ccc([N+](=O)[O-])cc1)/C=C/c1ccco1
Potency [1]: inconclusive: 25.1 µM [falling, single point]

CCCCSCc1nc2ccccn2c1Br
activity change, negative = inhibition [1]: inconclusive: 19.4%

O=C(Nc1nnc(CCN2CCCCC2)s1)c1ccc(Cl)cc1Cl
activity change, negative = inhibition [1]: inconclusive: 7.54%

COc1cc(C(=O)NCCOc2ccc(F)cc2)c(Br)c(OC)c1OC
activity change, negative = inhibition [1]: inconclusive: 2.43%

CCn1c(=O)c2c(nc3n2CCS3)n(C)c1=O
activity change, negative = inhibition [1]: inconclusive: -106%

COc1ccc(C(=O)OCC(=O)N(C)C2CCS(=O)(=O)C2)cc1S(=O)(=O)N1CCCc2ccccc21 (centres undefined)
activity change, negative = inhibition [1]: inconclusive: -0.421%

[O-][n+]1cccc2c(Br)cc(Br)c(O)c21
Potency [1]: inconclusive: 25.1 µM [falling, single point]

Cc1ccc2nc(N3CCN(C(=O)C4COc5ccccc5O4)CC3)sc2c1 (centres undefined)
activity change, negative = inhibition [1]: inconclusive: 26.1%

COCCNC(=S)Nc1ccc(Cl)c(Cl)c1
activity change, negative = inhibition [1]: inactive

CCOC(=O)c1sc2nccc(OC)c2c1N=CNOC
activity change, negative = inhibition [1]: inactive

CCOC(=O)c1c(C)nc(C)c2c(=O)oc3ccccc3c12
activity change, negative = inhibition [1]: inconclusive: -2.93%

CCCC(=O)Nc1ccc(Br)cn1
activity change, negative = inhibition [1]: inconclusive: 14.6%

COc1ccc(OC)c(/C=C2\SC(=S)N(NS(=O)(=O)c3ccccc3)C2=O)c1
activity change, negative = inhibition [1]: inconclusive: 0.0182%

Cc1ccc(NC2SC(=O)N(CC(=O)O)C2=O)cc1 (centres undefined)
activity change, negative = inhibition [1]: inconclusive: -9.53%

Cc1cccc(/C=N/NC(=O)c2cc3c(s2)-c2ccccc2CC3)c1
activity change, negative = inhibition [1]: inconclusive: -4.25%

CCOC(=O)N1CCN(c2ncnc3c2cnn3-c2ccc(OC)cc2)CC1
activity change, negative = inhibition [1]: inconclusive: 3.15%

C(=C\c1ccccc1)/CSc1nnc(-c2cnccn2)n1Cc1ccco1
Potency [1]: inconclusive: 18.4 µM [falling, partial curve]

CCCCOc1cccc(C2/C(=C(\O)c3ccc4c(c3)OCCO4)C(=O)C(=O)N2CCN2CCOCC2)c1 (centres undefined)
activity change, negative = inhibition [1]: inactive

O=C(CC1Oc2ccccc2NC1=O)NCCc1ccccc1 (centres undefined)
activity change, negative = inhibition [1]: inconclusive: -21.1%

COc1ccc(Cc2nnc(NC(=O)c3cc(OC)cc(OC)c3)s2)cc1
activity change, negative = inhibition [1]: inconclusive: -7.77%

COc1ccccc1N1CCN(C(=O)CCSCc2ccccc2F)CC1
activity change, negative = inhibition [1]: inconclusive: 0.976% | activity change, negative = inhibition (at 46.1 µM (top of the series)): inactive: 0.463%

CCOC(=O)c1cc2c(=O)n3ccccc3nc2n(Cc2ccco2)c1=NC(=O)c1ccccc1OCC
activity change, negative = inhibition [1]: inactive

O=C(Nc1nccs1)c1cn(-c2ccccc2)nc1-c1ccccc1
activity change, negative = inhibition [1]: inconclusive: 14.9%

COc1ccc(S(=O)(=O)Nc2cc(C(C)C)c(O)cc2C)cc1
Potency [1]: inconclusive: 29.1 µM [falling, partial curve, poor fit]

Cc1cc(C(=O)Nc2ccc3[nH]ccc3c2)no1
activity change, negative = inhibition [1]: inconclusive: -23.7%

O=C(Nc1ccccc1)N1CCC(C(=O)N2CCN(c3ccccc3F)CC2)CC1
Potency [1]: inconclusive: 35.5 µM [falling, partial curve, poor fit]

Cc1ccc(S(=O)(=O)n2ccc3c(OCCOCCNCc4ccc(F)cc4)cccc32)cc1
activity change, negative = inhibition [1]: inconclusive: -7.94%

Oc1ccc(C=Nc2ccc(N3CCOCC3)cc2)c(O)c1
activity change, negative = inhibition [1]: inactive

CC1=CC(=O)N(c2ccn(C)n2)C1=O
activity change, negative = inhibition [1]: inconclusive: 6.68%

CCCCn1c(N)c(N(CC(C)C)C(=O)c2ccc(S(=O)(=O)N3CCC(C)CC3)cc2)c(=O)[nH]c1=O
activity change, negative = inhibition [1]: inactive

Cc1cc(N/N=C/c2c[nH]c3ccccc23)c2ccccc2n1
activity change, negative = inhibition [1]: inactive

COc1ccc(-n2nnnc2SCC(=O)c2ccc3c(c2)OCCO3)cc1
activity change, negative = inhibition [1]: inconclusive: 10%

COc1cc(C(=O)NCCOc2ccc(Cl)cc2)ccc1OCc1c(C)noc1C
activity change, negative = inhibition [1]: inactive

O=C1N=C(N2CCN(c3ccccc3)CC2)S/C1=C/c1ccco1
activity change, negative = inhibition [1]: inconclusive: 11.3%

COc1ccc(/C=C/c2nnc(NC(C)=O)s2)cc1
Potency [1]: inconclusive: 25.1 µM [falling, partial curve, poor fit]
